Results are given in words; binding and its absence hold for the method and conditions named. Binding seen in cells or lysates may run through a third protein. A yes stands for co-enrichment or nearness to the bait. Other partners may have been found.
Molecular target: DCP1-TurboID-6xHis-3xFLAG (Arabidopsis)
Assay: proximity labelling

| binding | Binder |
| --- | --- |
| binds | CTC-… DOMAIN 3 (CID3) (protein, UniProt Q8L793 1-587) MKPVLHSGSSSNGFSHRRFEKEAWMNNAQPSVDNTENGWDAESVDTPSQKLLVYFTTCNIGHQVEVHLKNGSVYSGIFHAANVEKDFGIILKMACLIRDSRGTKSRTVSKPSSKLLKIPADELVQVIAKDLPLSSDSVSDSVQCEKPLELLTDSLISQFYNVDLERELKPWVPDEDVPDCSDLENVFDDPWKRGWNQFEVNKTLFGVTSTFDEELYTTKLERGPGTRELEEQALRIAREIVGENTRDIHVAEERGLQLSGKFDIDEETKYSSVCATNRFDDTCYEDDEEEEEDILLDCCNNLTFGDSSASDGKEPASTGKFYEDSWGDSLHLRSNKMVDQSWSNSNKHTRQLMSELPSKDFPVAGNNIRNESQLGEQRKSKFLGASLFKKPSEESVSGFEDAPPPVKPSFIDGRLGLLSDRAKSENSSGWPGSSISRNSENSAASSASNLPILSPSSSGSLSSEKSTLNPNAKEFKLNPNAKSFKPSPSATRPQSPQSPVFDGSFYYPPVPPMPGLHIRYGTGAAFPGQQHPMMYNNTTQLSPNQTYYSPNSPQYPQPMMVTQQRPILFMPPTPYQPEMPYKGRDSY |
| binds | NECROTIC SPOTTED LESIONS 1 (NSL1) (protein, UniProt Q9SGN6 1-612) MAFNNFTRLDAHSAAEKAVSVIGLGYDLCSDVRFSACKTTPDGSRLVEIDPTRNRDLIFPGGIVVNNVSSSIKCDKGERTRLRSDILSFNQMSEKFNQDMCLSGKIPSGMFNNMFAFSKCWPKDASSVKTLAYDGWFISLYSVEIVRKQLTLRDEVKREVPSSWDSAALAGFIEKYGTHVVVGVTMGGKDVIHVKQMRKSNHEPEEIQKMLKHWGDERFCVDPVESKSPASVYSGKPKEENLLQWGLQPFGTSVSSAVVMHTKNEEIMRVCIRRGGVDLGQSHERWLSTVSQAPNVISMCFVPITSLLSGLPGTGFLSHAVNLYLRYKPPIEELHQFLEFQLPRQWAPVYGDLPLGLRRSKQSSPSLQFSLMGPKLYVNTSKVDSGERPVTGLRFFLEGKKGNHLAIHLQHLSACPPSLHLSHDDTYEPIEEPVEKGYYVPVKWGIFSHVCTYPVQYNGARSDDTASIVTKAWLEVKGMGMRKVLFLRLGFSLDASAVTRKSCWDNLSTNSRKSGVFSMISTRLSTGLSPNPATTKPQSKIDINSAVYPRGPSPPVKPKLLSLVDTKEVMRGPEEQPGYWVVTGAKLCVEAGKISIKAKYSLLTVISEDSLV |
| binds | NF-X1-type zinc finger protein NFXL1 (protein, UniProt Q9SY59 1-1188) MSFQVRRDRSDDRSHRFNHQQTWIPRNSSTSSVVVNEPLLPPNTDRNSETLDAGSASRPVYLQRQHNASGPPSYNHHQRSSNIGPPPPNQHRRYNAPDNQHQRSDNIGPPQPNQHRRYNAPDNQHQRSDNSGPPQPYRHRRNNAPENQHQRSDNIGPPPPNRQRRNNASGTLPDNRQRVASRTRPVNQGKRVAKEENVVLTDPNLPQLVQELQEKLVKSSIECMICYDKVGRSANIWSCSSCYSIFHINCIKRWARAPTSVDLLAEKNQGDNWRCPGCQSVQLTSSKEISYRCFCGKRRDPPSDPYLTPHSCGEPCGKPLEKEFAPAETTEEDLCPHVCVLQCHPGPCPPCKAFAPPRSCPCGKKMVTTRCSERRSDLVCGQRCDKLLSCGRHQCERTCHVGPCDPCQVLVNATCFCKKKVETVICGDMNVKGELKAEDGVYSCSFNCGKPLGCGNHFCSEVCHPGPCGDCDLLPSRVKTCYCGNTRLEEQIRQSCLDPIPSCSNVCRKLLPCRLHTCNEMCHAGDCPPCLVQVNQKCRCGSTSRAVECYITTSSEAEKFVCAKPCGRKKNCGRHRCSERCCPLLNGKKNDLSGDWDPHVCQIPCQKKLRCGQHSCESLCHSGHCPPCLEMIFTDLTCACGRTSIPPPLSCGTPVPSCQLPCPIPQPCGHSDTHGCHFGDCPPCSTPVEKKCVGGHVVLRNIPCGLKDIRCTKICGKTRRCGMHACARTCHPEPCDSFNESEAGMRVTCRQKCGAPRTDCRHTCAALCHPSAPCPDLRCEFSVTITCSCGRITATVPCDAGGRSANGSNVYCAAYDEASVLQKLPAPLQPVESSGNRIPLGQRKLSCDDECAKLERKRVLQDAFDITPPNLEALHFSENSAMTEIISDLYRRDPKWVLAVEERCKFLVLGKARGSTSALKVHIFCPMQKDKRDTVRLIAERWKLGVSNAGWEPKRFTVVHVTAKSKPPTRIIGARGGAISIGGPHPPFYDSLVDMDPGLVVSFLDLPREANISALVLRFGGECELVWLNDKNALAVFHDHARAATAMRRLEHGSVYHGAVVVQSGGQSPSLNNVWGKLPGSSAWDVDKGNPWRRAVIQESDDSWGAEDSPIGGSSTDAQASALRSAKSNSPIVTSVNRWSVLEPKKASTSTLEPIAQIEESSSSKTTGKQPVEGSGEEVVDDWEKVCE |
| binds | argonaute1 (AGO1) (protein, UniProt O04379 1-1048) MVRKRRTDAPSEGGEGSGSREAGPVSGGGRGSQRGGFQQGGGQHQGGRGYTPQPQQGGRGGRGYGQPPQQQQQYGGPQEYQGRGRGGPPHQGGRGGYGGGRGGGPSSGPPQRQSVPELHQATSPTYQAVSSQPTLSEVSPTQVPEPTVLAQQFEQLSVEQGAPSQAIQPIPSSSKAFKFPMRPGKGQSGKRCIVKANHFFAELPDKDLHHYDVTITPEVTSRGVNRAVMKQLVDNYRDSHLGSRLPAYDGRKSLYTAGPLPFNSKEFRINLLDEEVGAGGQRREREFKVVIKLVARADLHHLGMFLEGKQSDAPQEALQVLDIVLRELPTSRYIPVGRSFYSPDIGKKQSLGDGLESWRGFYQSIRPTQMGLSLNIDMSSTAFIEANPVIQFVCDLLNRDISSRPLSDADRVKIKKALRGVKVEVTHRGNMRRKYRISGLTAVATRELTFPVDERNTQKSVVEYFHETYGFRIQHTQLPCLQVGNSNRPNYLPMEVCKIVEGQRYSKRLNERQITALLKVTCQRPIDREKDILQTVQLNDYAKDNYAQEFGIKISTSLASVEARILPPPWLKYHESGREGTCLPQVGQWNMMNKKMINGGTVNNWICINFSRQVQDNLARTFCQELAQMCYVSGMAFNPEPVLPPVSARPEQVEKVLKTRYHDATSKLSQGKEIDLLIVILPDNNGSLYGDLKRICETELGIVSQCCLTKHVFKMSKQYMANVALKINVKVGGRNTVLVDALSRRIPLVSDRPTIIFGADVTHPHPGEDSSPSIAAVVASQDWPEITKYAGLVCAQAHRQELIQDLFKEWKDPQKGVVTGGMIKELLIAFRRSTGHKPLRIIFYRDGVSEGQFYQVLLYELDAIRKACASLEAGYQPPVTFVVVQKRHHTRLFAQNHNDRHSVDRSGNILPGTVVDSKICHPTEFDFYLCSHAGIQGTSRPAHYHVLWDENNFTADGLQSLTNNLCYTYARCTRSVSIVPPAYYAHLAAFRARFYMEPETSDSGSMASGSMARGGGMAGRSTRGPNVNAAVRPLPALKENVKRVMFYC |
| binds | RH6 (protein, UniProt Q94BV4 1-528) MNNNNNNRGRFPPGIGAAGPGPDPNFQSRNPNPPQPQQYLQSRTPFPQQPQPQPPQYLQSQSDAQQYVQRGYPQQIQQQQQLQQQQQQQQQQQEQQWSRRAQLPGDPSYIDEVEKTVQSEAISDSNNEDWKATLKLPPRDNRYQTEDVTATKGNEFEDYFLKRDLLRGIYEKGFEKPSPIQEESIPIALTGSDILARAKNGTGKTGAFCIPTLEKIDPENNVIQAVILVPTRELALQTSQVCKELSKYLKIEVMVTTGGTSLRDDIMRLYQPVHLLVGTPGRILDLAKKGVCVLKDCAMLVMDEADKLLSVEFQPSIEELIQFLPESRQILMFSATFPVTVKSFKDRYLKKPYIINLMDQLTLMGVTQYYAFVEERQKVHCLNTLFSKLQINQSIIFCNSVNRVELLAKKITELGYSCFYIHAKMVQDHRNRVFHDFRNGACRNLVCTDLFTRGIDIQAVNVVINFDFPRTSESYLHRVGRSGRFGHLGLAVNLVTYEDRFKMYQTEQELGTEIKPIPSLIDKAIYCQ |
